Data as given in PubChem BioAssay AID602196 (INSERM, 2012)
The deposit covers about 23,000 reagents; this is a part drawn at random. In the full data, 455 (2%) got an active call. 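Active includes both protection and sensitisation; some change values fall well beyond the stated -50 to +50 range.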 Not all columns of the deposit are shown. Not stated in the record: the amount of reagent.

- Screen: 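Modifiers of cisplatin sensitivity in A549 cells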
- Cell system: human A549 lung cancer cells
- Reagents: siRNA pair against human genes
- Timing: 48 h transfection before cisplatin; time from cisplatin to read-out not stated
- Challenge: cisplatin at a dose killing half of control-siRNA cells; exact dose and duration not given
- Detection: 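Shift in cisplatin death relative to control siRNA, from -50 (all cells die) to +50 (no cells die); siRNAs harmful on their own scored 0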
- Scale: two-siRNA summed score (-2 to +2): higher = both siRNAs protect from cisplatin killing; -2 means both sensitise
- Active means: 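siRNAs harmful alone (LDH or WST-1) get 0; others get +1 for less and -1 for more cisplatin killing; genes are active when the two siRNAs give the same sign, summing to ±2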
- Calls: active = both siRNAs shift cisplatin killing the same way; inactive = no consistent shift, or siRNA harmful alone

Gene | two-siRNA summed score (-2 to +2) | activity call
ZNF397 | 0 | inactive
LOC400720 | 0 | inactive
SGMS1 | -1 | inactive
PMF1 | 0 | inactive
LOC440597 | 1 | inactive
CHD1 | -1 | inactive
HSFY1 | 0 | inactive
LOC400492 | 0 | inactive
NKX3-2 | 1 | inactive
EFCAB7 | 0 | inactive
SPATA25 | 1 | inactive
MIA3 | 0 | inactive
PPIL1 | 0 | inactive
LOC440197 | 0 | inactive
UNC119 | 0 | inactive
GLTP | 0 | inactive
MAFF | -1 | inactive
CENPW | 0 | inactive
LDB3 | 0 | inactive
LOC390533 | 1 | inactive
KIF7 | 0 | inactive
E2F6 | 0 | inactive
LOC400299 | 0 | inactive
C9orf57 | 0 | inactive
MORN5 | 0 | inactive

Laid out differently: results already given
Gene,two-siRNA summed score (-2 to +2),activity call
LDB3,0,inactive
LOC390533,1,inactive
KIF7,0,inactive
E2F6,0,inactive
LOC400299,0,inactive
C9orf57,0,inactive

Next results:
Gene | two-siRNA summed score (-2 to +2) | activity call
IL17D | 0 | inactive
HDC | 0 | inactive
SLC30A7 | 0 | inactive
GGTLC1 | 0 | inactive
LOC138652 | 0 | inactive
H2AX | 0 | inactive
PDLIM4 | -1 | inactive
CNTNAP5 | 2 | active
CNTNAP3P2 | 0 | inactive
LOC388275 | 1 | inactive
CATSPERD | 2 | active
MRGPRF | 0 | inactive
OR8G2P | 0 | inactive
CLDND2 | -1 | inactive
